No constants are given. Whether binding was seen depends on the method and setting. For some of these results: In cells and extracts the contact can be indirect. Some entries that bind do so weakly or less than the wild type. Blank lines part the entries; values can stand above or below the molecule they belong to.
What was measured:
[1] = molecular target: c-Myc (human (endogenous in DLD-1)) (UniProt P01106); experiment: co-IP; DLD-1 cells after transfection of GLCC1 siRNA; immunoprecipitation and western blot
[2] = molecular target: c-Myc (human (endogenous in DLD-1)) (UniProt P01106); experiment: co-IP; endogenous proteins in DLD-1 cells; HSP90 and c-Myc antibodies, normal rabbit IgG as control; western blot
GST-c-Myc (human) = GST-c-Myc (human) (UniProt P01106); experiment: pull-down; 2 ug GST or GST-c-Myc on glutathione-Sepharose 4B beads; 1 ug His-HSP90 added without or with GLCC1 lncRNA (lncRNA strengthened the interaction); 1 h, 4 °C; 20 mM Tris pH 7.5, 150 mM NaCl, 1% Triton X-100, 2 mM DTT, 1 mM EDTA; anti-GST and anti-His western blot; both purified
[3] = molecular target: HSP90 (HSP90AA1) (human (endogenous in DLD-1)) (UniProt P07900); experiment: co-IP; co-IP with western blot; cell line not named for this experiment; also done after down-regulation of GLCC1 (interaction impaired)

Amino acid sequences for entries named in this document (tags omitted).
UniProt P01106: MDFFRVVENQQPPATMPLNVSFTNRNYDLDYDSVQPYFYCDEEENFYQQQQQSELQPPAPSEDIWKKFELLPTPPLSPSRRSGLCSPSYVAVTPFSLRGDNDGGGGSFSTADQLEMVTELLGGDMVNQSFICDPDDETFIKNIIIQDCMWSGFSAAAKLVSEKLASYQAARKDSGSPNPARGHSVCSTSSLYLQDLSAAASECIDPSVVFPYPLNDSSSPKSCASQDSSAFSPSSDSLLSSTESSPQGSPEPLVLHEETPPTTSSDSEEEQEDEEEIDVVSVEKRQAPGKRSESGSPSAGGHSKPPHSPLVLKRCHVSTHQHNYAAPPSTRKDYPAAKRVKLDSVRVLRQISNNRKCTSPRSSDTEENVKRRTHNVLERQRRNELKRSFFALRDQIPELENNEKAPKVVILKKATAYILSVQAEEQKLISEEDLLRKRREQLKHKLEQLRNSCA

- binding [2]: binds
Molecule: HSP90 (HSP90AA1) (from UniProt P07900 1-732)
- binding [1]: no binding (condition: after knock-down of GLCC1 (siRNA))

- binding (GST-c-Myc (human)): binds
Molecule: His-HSP90 (from UniProt P07900 1-732)

- binding [3]: binds
B1: USP22 (enzyme, UniProt Q9UPT9 1-525)
chain: MVSRPEPEGEAMDAELAVAPPGCSHLGSFKVDNWKQNLRAIYQCFVWSGTAEARKRKAKSCICHVCGVHLNRLHSCLYCVFFGCFTKKHIHEHAKAKRHNLAIDLMYGGIYCFLCQDYIYDKDMEIIAKEEQRKAWKMQGVGEKFSTWEPTKRELELLKHNPKRRKITSNCTIGLRGLINLGNTCFMNCIVQALTHTPLLRDFFLSDRHRCEMQSPSSCLVCEMSSLFQEFYSGHRSPHIPYKLLHLVWTHARHLAGYEQQDAHEFLIAALDVLHRHCKGDDNGKKANNPNHCNCIIDQIFTGGLQSDVTCQVCHGVSTTIDPFWDISLDLPGSSTPFWPLSPGSEGNVVNGESHVSGTTTLTDCLRRFTRPEHLGSSAKIKCSGCHSYQESTKQLTMKKLPIVACFHLKRFEHSAKLRRKITTYVSFPLELDMTPFMASSKESRMNGQYQQPTDSLNNDNKYSLFAVVNHQGTLESGHYTSFIRQHKDQWFKCDDAIITKASIKDVLDSEGYLLFYHKQFLEYE
